Laboratory results published in publication PMC7156461.

Molecular target: T1, Myc-HopQ N90, containing only an N-terminal 90 amino-acid region (Pseudomonas syringae pv. tomato DC3000) (UniProt Q888Y7)
T1 sequence: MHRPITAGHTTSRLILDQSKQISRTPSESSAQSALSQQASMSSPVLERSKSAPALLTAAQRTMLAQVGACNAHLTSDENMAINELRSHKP
Experiment: co-IP; whole-cell lysates of transfected B16F10 cells, IP with anti-Myc antibody on magnetic beads, immunoblot of the endogenous partner (anti-14-3-3 or anti-p62)

With “14-3-3 protein (mouse (endogenous in B16F10))” the binding was “binds”.

These are yes or no findings as the source states them, for the method shown. In cells and extracts the contact can be indirect. A result given as binding can be weak or reduced; the word gives no strength. Tags and fused reporters may be left off the sequences shown.
